From the supplement of paper PMC10849652
This is one part of the list. Residues, ends and D or L forms follow the SMILES beside them. *: point of attachment. Cbz = O=C(OCc1ccccc1)*

Amino acid sequences for entries named in this document (tags omitted). A change or cut given only in a name is not applied to a line headed by its entry.
UniProt Q9H875: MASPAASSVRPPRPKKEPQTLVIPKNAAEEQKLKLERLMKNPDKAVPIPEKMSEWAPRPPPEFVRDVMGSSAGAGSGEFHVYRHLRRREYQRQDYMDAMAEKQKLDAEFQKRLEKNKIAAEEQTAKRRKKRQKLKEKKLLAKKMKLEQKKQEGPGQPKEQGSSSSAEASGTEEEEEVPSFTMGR
UniProt P53041: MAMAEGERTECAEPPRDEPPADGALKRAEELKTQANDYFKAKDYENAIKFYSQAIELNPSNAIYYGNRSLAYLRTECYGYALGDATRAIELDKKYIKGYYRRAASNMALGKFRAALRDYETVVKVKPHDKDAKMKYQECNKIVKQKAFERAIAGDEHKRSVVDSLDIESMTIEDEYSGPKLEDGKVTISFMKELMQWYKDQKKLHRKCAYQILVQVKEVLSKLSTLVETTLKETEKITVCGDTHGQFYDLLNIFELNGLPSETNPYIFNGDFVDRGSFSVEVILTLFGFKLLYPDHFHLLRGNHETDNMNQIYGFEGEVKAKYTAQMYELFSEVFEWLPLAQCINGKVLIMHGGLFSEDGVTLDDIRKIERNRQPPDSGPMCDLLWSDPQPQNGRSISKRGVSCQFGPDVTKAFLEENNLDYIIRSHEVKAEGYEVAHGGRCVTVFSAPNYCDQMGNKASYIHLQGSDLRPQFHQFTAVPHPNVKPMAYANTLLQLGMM
UniProt Q92733: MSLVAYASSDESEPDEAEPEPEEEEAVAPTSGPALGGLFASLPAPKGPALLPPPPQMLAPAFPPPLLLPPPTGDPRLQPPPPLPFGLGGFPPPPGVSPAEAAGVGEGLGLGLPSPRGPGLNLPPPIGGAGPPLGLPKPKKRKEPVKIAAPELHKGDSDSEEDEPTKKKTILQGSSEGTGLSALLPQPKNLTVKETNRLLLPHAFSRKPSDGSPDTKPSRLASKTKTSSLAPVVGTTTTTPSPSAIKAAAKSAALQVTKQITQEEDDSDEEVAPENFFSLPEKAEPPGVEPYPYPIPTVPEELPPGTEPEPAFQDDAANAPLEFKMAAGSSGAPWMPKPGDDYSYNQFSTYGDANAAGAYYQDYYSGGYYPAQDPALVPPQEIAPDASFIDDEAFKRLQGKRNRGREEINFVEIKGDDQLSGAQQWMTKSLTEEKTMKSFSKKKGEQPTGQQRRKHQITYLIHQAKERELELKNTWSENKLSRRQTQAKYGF
UniProt P63151: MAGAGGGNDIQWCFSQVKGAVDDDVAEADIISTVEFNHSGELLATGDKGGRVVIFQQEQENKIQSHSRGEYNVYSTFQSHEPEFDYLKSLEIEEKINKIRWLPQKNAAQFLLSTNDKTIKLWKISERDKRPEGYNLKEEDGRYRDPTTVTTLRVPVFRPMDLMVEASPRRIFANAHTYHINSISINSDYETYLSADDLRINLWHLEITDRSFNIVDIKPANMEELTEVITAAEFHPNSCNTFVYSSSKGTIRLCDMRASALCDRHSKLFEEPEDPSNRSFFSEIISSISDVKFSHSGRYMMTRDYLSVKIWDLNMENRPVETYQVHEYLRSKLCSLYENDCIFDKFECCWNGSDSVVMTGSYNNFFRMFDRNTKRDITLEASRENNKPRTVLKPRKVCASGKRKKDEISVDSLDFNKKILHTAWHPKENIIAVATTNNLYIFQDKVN
UniProt Q14738, whole entry, looked up: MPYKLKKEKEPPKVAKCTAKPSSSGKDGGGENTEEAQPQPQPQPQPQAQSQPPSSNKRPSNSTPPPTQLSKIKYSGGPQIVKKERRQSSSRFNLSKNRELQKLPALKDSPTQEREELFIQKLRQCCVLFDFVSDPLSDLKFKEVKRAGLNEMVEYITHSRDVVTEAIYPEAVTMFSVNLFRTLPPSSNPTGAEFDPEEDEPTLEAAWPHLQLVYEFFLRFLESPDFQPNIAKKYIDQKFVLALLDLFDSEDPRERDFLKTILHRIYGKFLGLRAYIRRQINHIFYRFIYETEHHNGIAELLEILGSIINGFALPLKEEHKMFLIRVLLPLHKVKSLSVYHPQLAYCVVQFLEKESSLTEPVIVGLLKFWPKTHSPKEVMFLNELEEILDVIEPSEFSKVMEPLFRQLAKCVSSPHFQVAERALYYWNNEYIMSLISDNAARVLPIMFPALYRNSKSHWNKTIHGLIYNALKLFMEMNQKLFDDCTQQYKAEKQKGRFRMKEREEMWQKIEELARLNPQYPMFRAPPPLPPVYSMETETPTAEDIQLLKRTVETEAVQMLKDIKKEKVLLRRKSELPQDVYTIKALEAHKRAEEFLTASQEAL
UniProt O60828: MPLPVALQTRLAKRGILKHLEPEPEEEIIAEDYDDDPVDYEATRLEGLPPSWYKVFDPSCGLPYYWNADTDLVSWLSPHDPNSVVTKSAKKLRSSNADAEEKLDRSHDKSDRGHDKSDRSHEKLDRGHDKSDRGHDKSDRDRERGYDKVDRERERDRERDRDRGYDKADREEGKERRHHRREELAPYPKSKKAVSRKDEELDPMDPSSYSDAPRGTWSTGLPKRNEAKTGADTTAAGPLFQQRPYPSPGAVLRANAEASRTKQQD
UniProt Q96SB3: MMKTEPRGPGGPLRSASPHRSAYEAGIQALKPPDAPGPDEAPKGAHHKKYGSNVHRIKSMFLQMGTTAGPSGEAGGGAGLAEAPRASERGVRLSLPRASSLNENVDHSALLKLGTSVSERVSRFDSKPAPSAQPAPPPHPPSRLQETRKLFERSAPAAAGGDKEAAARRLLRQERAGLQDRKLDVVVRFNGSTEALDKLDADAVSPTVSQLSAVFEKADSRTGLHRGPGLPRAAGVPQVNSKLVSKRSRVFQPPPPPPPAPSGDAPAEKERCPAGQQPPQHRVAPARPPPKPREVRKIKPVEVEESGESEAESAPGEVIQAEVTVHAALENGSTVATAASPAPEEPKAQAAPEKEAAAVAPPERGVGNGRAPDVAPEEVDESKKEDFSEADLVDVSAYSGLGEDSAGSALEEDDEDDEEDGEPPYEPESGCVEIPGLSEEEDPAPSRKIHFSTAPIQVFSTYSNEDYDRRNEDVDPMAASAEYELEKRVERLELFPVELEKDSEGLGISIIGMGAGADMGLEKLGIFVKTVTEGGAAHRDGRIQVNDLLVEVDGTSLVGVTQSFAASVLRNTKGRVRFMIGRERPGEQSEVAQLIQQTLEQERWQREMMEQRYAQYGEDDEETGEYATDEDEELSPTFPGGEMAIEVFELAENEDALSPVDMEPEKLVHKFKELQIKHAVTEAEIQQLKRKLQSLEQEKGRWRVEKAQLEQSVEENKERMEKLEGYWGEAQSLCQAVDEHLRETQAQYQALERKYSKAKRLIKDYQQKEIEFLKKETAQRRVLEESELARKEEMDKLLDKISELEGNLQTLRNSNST
UniProt Q9UMS4: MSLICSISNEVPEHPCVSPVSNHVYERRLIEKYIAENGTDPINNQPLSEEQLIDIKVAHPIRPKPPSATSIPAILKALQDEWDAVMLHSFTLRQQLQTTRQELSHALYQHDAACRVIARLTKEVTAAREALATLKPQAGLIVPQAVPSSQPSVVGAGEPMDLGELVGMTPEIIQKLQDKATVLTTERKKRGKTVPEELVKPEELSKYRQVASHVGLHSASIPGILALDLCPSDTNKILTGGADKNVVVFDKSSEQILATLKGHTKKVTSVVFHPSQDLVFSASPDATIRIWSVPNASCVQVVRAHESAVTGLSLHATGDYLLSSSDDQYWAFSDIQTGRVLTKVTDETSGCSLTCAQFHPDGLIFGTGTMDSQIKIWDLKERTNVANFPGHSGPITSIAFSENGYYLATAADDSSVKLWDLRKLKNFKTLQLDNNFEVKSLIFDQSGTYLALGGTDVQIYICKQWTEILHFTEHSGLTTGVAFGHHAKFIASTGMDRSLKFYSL
UniProt O14744, whole entry, looked up: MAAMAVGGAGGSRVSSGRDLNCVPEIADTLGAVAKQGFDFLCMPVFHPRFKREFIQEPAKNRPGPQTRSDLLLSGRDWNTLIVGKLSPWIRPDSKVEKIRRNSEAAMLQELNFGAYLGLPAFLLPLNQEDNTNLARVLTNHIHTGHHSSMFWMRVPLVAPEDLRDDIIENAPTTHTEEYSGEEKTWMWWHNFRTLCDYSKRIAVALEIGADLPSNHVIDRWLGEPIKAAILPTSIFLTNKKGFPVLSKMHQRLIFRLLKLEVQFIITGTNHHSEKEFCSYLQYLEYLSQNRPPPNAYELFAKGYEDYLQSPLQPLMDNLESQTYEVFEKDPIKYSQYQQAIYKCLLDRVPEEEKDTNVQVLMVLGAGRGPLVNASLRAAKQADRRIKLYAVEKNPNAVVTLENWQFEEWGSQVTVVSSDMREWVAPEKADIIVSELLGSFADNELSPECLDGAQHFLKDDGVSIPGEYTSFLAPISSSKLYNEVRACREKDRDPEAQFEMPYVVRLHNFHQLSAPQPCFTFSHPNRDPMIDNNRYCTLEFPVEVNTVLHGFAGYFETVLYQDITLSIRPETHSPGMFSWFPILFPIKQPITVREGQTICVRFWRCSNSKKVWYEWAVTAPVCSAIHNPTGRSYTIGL
UniProt Q15435: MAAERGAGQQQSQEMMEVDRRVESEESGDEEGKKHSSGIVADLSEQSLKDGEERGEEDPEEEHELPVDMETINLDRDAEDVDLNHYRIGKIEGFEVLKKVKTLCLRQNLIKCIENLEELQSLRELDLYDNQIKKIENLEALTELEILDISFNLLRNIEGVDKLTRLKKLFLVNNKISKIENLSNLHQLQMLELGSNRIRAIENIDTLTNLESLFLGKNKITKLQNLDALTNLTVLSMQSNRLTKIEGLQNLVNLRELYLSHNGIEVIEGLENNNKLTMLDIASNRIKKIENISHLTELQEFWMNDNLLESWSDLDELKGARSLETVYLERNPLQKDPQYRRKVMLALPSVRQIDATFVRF
UniProt O00743: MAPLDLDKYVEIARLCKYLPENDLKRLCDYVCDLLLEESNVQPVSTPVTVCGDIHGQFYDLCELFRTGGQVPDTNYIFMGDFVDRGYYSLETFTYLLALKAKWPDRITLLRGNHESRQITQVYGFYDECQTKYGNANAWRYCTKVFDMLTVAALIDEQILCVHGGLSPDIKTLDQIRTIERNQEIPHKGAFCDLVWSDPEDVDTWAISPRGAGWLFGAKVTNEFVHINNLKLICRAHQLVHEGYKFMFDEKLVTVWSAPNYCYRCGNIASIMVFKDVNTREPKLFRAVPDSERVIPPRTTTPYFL
UniProt P60891: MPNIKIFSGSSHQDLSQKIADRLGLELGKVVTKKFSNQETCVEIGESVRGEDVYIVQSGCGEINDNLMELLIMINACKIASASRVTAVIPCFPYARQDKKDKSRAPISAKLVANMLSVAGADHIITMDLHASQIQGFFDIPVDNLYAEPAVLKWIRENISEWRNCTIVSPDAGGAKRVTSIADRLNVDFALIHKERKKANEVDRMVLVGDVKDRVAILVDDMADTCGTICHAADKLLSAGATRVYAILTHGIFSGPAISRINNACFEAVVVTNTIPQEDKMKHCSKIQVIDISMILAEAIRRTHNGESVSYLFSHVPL
UniProt P49593: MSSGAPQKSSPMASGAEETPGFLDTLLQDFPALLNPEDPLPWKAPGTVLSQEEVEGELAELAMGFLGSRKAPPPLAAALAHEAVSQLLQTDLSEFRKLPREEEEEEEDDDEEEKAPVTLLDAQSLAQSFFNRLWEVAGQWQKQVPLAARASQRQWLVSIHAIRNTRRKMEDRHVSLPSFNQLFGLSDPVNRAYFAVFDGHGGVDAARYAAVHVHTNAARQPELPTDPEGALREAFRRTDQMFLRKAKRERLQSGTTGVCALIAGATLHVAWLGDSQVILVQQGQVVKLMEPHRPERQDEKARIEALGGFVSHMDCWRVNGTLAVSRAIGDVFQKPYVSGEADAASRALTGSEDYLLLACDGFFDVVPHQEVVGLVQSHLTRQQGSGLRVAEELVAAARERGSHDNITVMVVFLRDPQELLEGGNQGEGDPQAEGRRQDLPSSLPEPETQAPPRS
UniProt P63098, whole entry, looked up: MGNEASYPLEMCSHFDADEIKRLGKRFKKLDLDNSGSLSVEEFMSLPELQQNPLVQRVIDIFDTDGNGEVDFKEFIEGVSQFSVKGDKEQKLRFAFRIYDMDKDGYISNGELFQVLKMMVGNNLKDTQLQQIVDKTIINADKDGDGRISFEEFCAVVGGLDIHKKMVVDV
UniProt P30041: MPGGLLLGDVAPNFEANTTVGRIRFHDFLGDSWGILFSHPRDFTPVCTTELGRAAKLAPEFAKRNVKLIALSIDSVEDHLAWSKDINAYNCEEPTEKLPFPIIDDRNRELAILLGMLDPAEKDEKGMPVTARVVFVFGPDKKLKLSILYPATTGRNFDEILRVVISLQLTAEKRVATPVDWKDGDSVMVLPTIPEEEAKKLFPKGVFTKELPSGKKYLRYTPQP
UniProt Q8TAE6: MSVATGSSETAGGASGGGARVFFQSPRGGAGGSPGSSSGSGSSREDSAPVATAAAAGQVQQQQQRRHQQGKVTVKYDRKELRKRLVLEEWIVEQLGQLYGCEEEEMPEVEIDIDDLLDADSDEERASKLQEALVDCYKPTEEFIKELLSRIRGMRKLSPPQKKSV

How the values were obtained:
Assay in all cases: log2 fold change, soluble protein after heating vs DMSO (PISA); higher = thermal stabilisation; K562 cells, 10 uM, 30 min; active = over 0.2 and 3.5 SD of the protein, either way, in both replicates (recomputed)
erlotinib = compound: C#Cc1cccc(Nc2ncnc3cc(OCCOC)c(OCCOC)cc23)c1 [erlotinib]
Summary of the method: (§1)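 K562 cells at 2×10^6 cells/mL were given 10 μM compound for 30 min. Aliquots then went through 3 min of heating across 48°C-58°C, were pooled, and were extracted in PBS with 0.5% NP-40 at 4°C, and the supernatant after 21,000xg for 90 min was quantified by TMTpro 16plex LC-MS/MS with channel sums equalised. Thermal stability relative to control samples, from duplicates, is given as log2 fold change.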

[1] = compound: C/C(=N\NC(=O)C1=CC(=CC=C1)S(=O)(=O)N2CCOCC2)/C3=C(C=CC(=C3)Cl)O
Summary of the method: as §1

[2] = compound: C1=CC(=C(C=C1Cl)C2=NC3=NC=CN=C3C(=N2)NC4=CC=NC=C4)F
Summary of the method: as §1

[3] = compound: C1=CC(=CC=C1C2=NC3=C(N2)C=C(C=C3)C(=O)N)OC4=CC=C(C=C4)Cl
Summary of the method: as §1

[4] = compound: C1=CC2=C(C=CC(=C2)/C=C\3/C(=O)NC(=NCC4=CC=CS4)S3)N=C1
Summary of the method: as §1

[5] = compound: C1=CC2=NC=CN=C2C=C1/C=C/3\C(=O)NC(=O)S3
Summary of the method: as §1

[6] = compound: C1=CC=C(C=C1)C2=NC(=C(N2)C3=CC=NC=C3)C4=CC(=C(C=C4)Cl)O
Summary of the method: as §1

[7] = compound: C1=CC=C2C(=C1)C3=NNC4=CC=CC(=C43)C2=O
Summary of the method: as §1

[8] = compound: C1CCN(C1)C(=O)NC2=CC=CC(=C2)NC3=NC=C(C(=N3)NCCC4=CN=CN4)Br
Summary of the method: as §1

[9] = compound: C1CN(CCC1(CC2=CC=C(C=C2)Cl)N)C3=NC=NC4=C3C=CN4
Summary of the method: as §1

IRAK-1-4 Inhibitor I = compound: C1COCCN1CCN2C3=CC=CC=C3N=C2NC(=O)C4=CC(=CC=C4)[N+](=O)[O-] [IRAK-1-4 Inhibitor I]
Summary of the method: as §1

ibrutinib = compound: C=CC(=O)N1CCC[C@@H](n2nc(-c3ccc(Oc4ccccc4)cc3)c3c(N)ncnc32)C1 [ibrutinib]
Summary of the method: as §1

[10] = compound: CC(=O)c1cnc2ccc(-c3cc(Cl)c(O)c(Cl)c3)nc2c1N[C@H]1CC[C@H](CN(C)C)CC1
Summary of the method: as §1

ralimetinib = compound: CC(C)(C)Cn1c(N)nc2ccc(-c3[nH]c(C(C)(C)C)nc3-c3ccc(F)cc3)nc21 [ralimetinib]
Summary of the method: as §1

[11] = compound: CC(C)(O)CC(=O)NCCn1ccc2ncnc(Nc3ccc(Oc4cccc(C(F)(F)F)c4)c(Cl)c3)c21
Summary of the method: as §1

[12] = compound: CC(C)C1=C2N=C(C=C(N2N=C1)NCC3=CC=CC=C3)NCCCCCCN
Summary of the method: as §1

[13] = compound: CC(C)C[C@@H](C=O)NC(=O)[C@H](CC(C)C)NC(=O)[C@H](CC(C)C)NC(=O)OCc1ccccc1
Summary of the method: as §1

pinometostat = compound: CC(C)N(C[C@H]1O[C@@H](n2cnc3c(N)ncnc32)[C@H](O)[C@@H]1O)[C@H]1C[C@@H](CCc2nc3cc(C(C)(C)C)ccc3[nH]2)C1 [pinometostat]
Summary of the method: as §1

[14] = compound: CC1=C(C(CC(=O)N1)C2=CC=C(C=C2)C(F)(F)F)C(=O)NC3=C(C=C4C(=C3)C=NN4)F
Summary of the method: as §1

[15] = compound: CC1=C(C2=C(C=C1)C(=O)C3=CC=CC=C3N2CCCN)C
Summary of the method: as §1

Measured: log2 fold change

PRKRIP1 (UniProt Q9H875)
inactive: erlotinib -0.006 | [1] -0.002 | [2] -0.007 | [3] 0.053 | [4] -0.092 | [5] 0.105 | [6] 0.016 | [7] -0.027 | [8] 0.011 | [9] 0.021 | IRAK-1-4 Inhibitor I -0.013 | ibrutinib -0.029 | [10] 0.114 | ralimetinib 0.02 | [11] 0.069 | [12] 0.153 | [13] -0.031 | pinometostat -0.005 | [14] 0.002 | [15] 0.064

PPP5C (UniProt P53041)
inactive: erlotinib -0.006 | [1] -0.021 | [2] 0.053 | [3] 0.01 | [4] 0.024 | [5] 0.011 | [6] 0.025 | [7] -0.007 | [8] 0.004 | [9] 0.062 | IRAK-1-4 Inhibitor I 0.041 | ibrutinib -0.006 | [10] 0.036 | ralimetinib 0 | [11] -0.051 | [12] 0.027 | [13] -0.04 | pinometostat -0.02 | [14] -0.038 | [15] 0.005

PRCC (UniProt Q92733)
inactive: erlotinib 0.01 | [1] -0.115 | [2] -0.012 | [3] 0.01 | [4] 0.044 | [5] 0.047 | [6] -0.047 | [7] -0.085 | [8] -0.005 | [9] 0.078 | IRAK-1-4 Inhibitor I 0.049 | ibrutinib 0.04 | [10] -0.07 | ralimetinib -0.029 | [11] 0.027 | [12] 0.01 | [13] 0.025 | pinometostat -0.008 | [14] 0.011 | [15] -0.057

PPP2R2A isoform 2 (UniProt P63151)
inactive: erlotinib -0.007 | [1] 0.027 | [2] 0.06 | [3] -0.004 | [4] 0.041 | [5] -0.01 | [6] -0.047 | [7] -0.016 | [8] -0.012 | [9] 0.063 | IRAK-1-4 Inhibitor I 0.011 | ibrutinib 0.011 | [10] -0.041 | ralimetinib -0.093 | [11] -0.015 | [12] 0.052 | [13] -0.055 | pinometostat -0.037 | [14] -0.028 | [15] -0.012

PPP2R5D (UniProt Q14738)
inactive: erlotinib -0.029 | [1] 0.082 | [2] -0.037 | [3] -0.045 | [4] 0.038 | [5] 0.043 | [6] 0.024 | [7] 0.005 | [8] -0.03 | [9] -0.086 | IRAK-1-4 Inhibitor I -0.089 | ibrutinib -0.051 | [10] 0.096 | ralimetinib 0.079 | [11] -0.165 | [12] -0.161 | [13] 0 | pinometostat -0.004 | [14] -0.034 | [15] -0.015

2 neighbouring entries already listed, quoted:
PPP2R2A isoform 2 (UniProt P63151)
inactive: erlotinib -0.007 | [1] 0.027 | [2] 0.06 | [3] -0.004 | [4] 0.041 | [5] -0.01 | [6] -0.047 | [7] -0.016 | [8] -0.012 | [9] 0.063 | IRAK-1-4 Inhibitor I 0.011 | ibrutinib 0.011 | [10] -0.041 | ralimetinib -0.093 | [11] -0.015 | [12] 0.052 | [13] -0.055 | pinometostat -0.037 | [14] -0.028 | [15] -0.012

PPP2R5D (UniProt Q14738)
inactive: erlotinib -0.029 | [1] 0.082 | [2] -0.037 | [3] -0.045 | [4] 0.038 | [5] 0.043 | [6] 0.024 | [7] 0.005 | [8] -0.03 | [9] -0.086 | IRAK-1-4 Inhibitor I -0.089 | ibrutinib -0.051 | [10] 0.096 | ralimetinib 0.079 | [11] -0.165 | [12] -0.161 | [13] 0 | pinometostat -0.004 | [14] -0.034 | [15] -0.015

More entries follow.

PQBP1 (UniProt O60828)
inactive: erlotinib 0.026 | [1] 0.023 | [2] 0.011 | [3] -0.021 | [4] -0.168 | [5] 0.033 | [6] -0.072 | [7] -0.024 | [8] -0.006 | [9] -0.012 | IRAK-1-4 Inhibitor I 0.047 | ibrutinib 0.032 | [10] -0.021 | ralimetinib -0.03 | [11] 0.031 | [12] 0.118 | [13] 0.027 | pinometostat -0.031 | [14] 0.002 | [15] 0.015

PPP1R9B (UniProt Q96SB3)
inactive: erlotinib 0.045 | [1] -0.107 | [2] -0.187 | [3] 0.053 | [4] -0.11 | [5] 0.052 | [6] -0.054 | [7] -0.062 | [8] -0.049 | [9] -0.145 | IRAK-1-4 Inhibitor I -0.123 | ibrutinib 0.142 | [10] 0.177 | ralimetinib 0.166 | [11] 0.115 | [12] -0.09 | [13] -0.065 | pinometostat 0.196 | [14] -0.291 | [15] -0.012

PRPF19 (UniProt Q9UMS4)
inactive: erlotinib -0.024 | [1] -0.012 | [2] 0.014 | [3] -0.011 | [4] -0.019 | [5] 0.013 | [6] -0.013 | [7] -0.026 | [8] 0.001 | [9] 0.019 | IRAK-1-4 Inhibitor I 0.049 | ibrutinib 0.006 | [10] 0.127 | ralimetinib -0.027 | [11] 0.035 | [12] 0.078 | [13] -0.044 | pinometostat -0.004 | [14] -0.003 | [15] 0.103

PRMT5 (UniProt O14744)
inactive: erlotinib 0 | [1] 0.001 | [2] 0.019 | [3] -0.011 | [4] 0.02 | [5] -0.018 | [6] 0.008 | [7] 0.019 | [8] 0.019 | [9] 0.011 | IRAK-1-4 Inhibitor I 0.009 | ibrutinib 0.007 | [10] -0.075 | ralimetinib -0.06 | [11] -0.035 | [12] 0.003 | [13] -0.051 | pinometostat -0.012 | [14] -0.003 | [15] 0.064

PPP1R7 (UniProt Q15435)
inactive: erlotinib 0.042 | [1] 0.037 | [2] 0.012 | [3] -0.009 | [4] 0.031 | [5] -0.002 | [6] 0.016 | [7] -0.001 | [8] -0.05 | [9] 0.031 | IRAK-1-4 Inhibitor I 0.045 | ibrutinib -0.022 | [10] 0.123 | ralimetinib -0.033 | [11] 0 | [12] -0.019 | [13] -0.067 | pinometostat -0.021 | [14] -0.013 | [15] -0.006

PPP6C isoform 3 (UniProt O00743)
inactive: erlotinib -0.032 | [1] -0.039 | [2] 0.005 | [3] -0.013 | [4] 0.006 | [5] 0.031 | [6] -0.032 | [7] -0.03 | [8] 0.03 | [9] 0.012 | IRAK-1-4 Inhibitor I 0.051 | ibrutinib 0.032 | [10] 0.031 | ralimetinib -0.026 | [11] 0.008 | [12] 0.023 | [13] 0.012 | pinometostat -0.007 | [14] 0.025 | [15] -0.114

PRPS1 (UniProt P60891)
inactive: erlotinib -0.025 | [1] 0.002 | [2] 0.001 | [3] 0.008 | [4] -0.024 | [5] -0.047 | [6] -0.062 | [7] 0.023 | [8] -0.01 | [9] -0.024 | IRAK-1-4 Inhibitor I 0.051 | ibrutinib 0.014 | [10] 0.012 | ralimetinib -0.056 | [11] -0.004 | [12] 0.104 | [13] -0.006 | pinometostat -0.044 | [14] 0.01 | [15] 0.087

PPM1F (UniProt P49593)
inactive: erlotinib -0.012 | [1] 0.054 | [2] 0.073 | [3] 0.077 | [4] 0 | [5] 0.011 | [6] -0.026 | [7] 0.032 | [8] 0.016 | [9] -0.118 | IRAK-1-4 Inhibitor I 0.008 | ibrutinib -0.019 | [10] -0.002 | ralimetinib -0.001 | [11] -0.039 | [12] -0.106 | [13] 0.034 | pinometostat -0.022 | [14] -0.035 | [15] -0.042

PPP3R1 (UniProt P63098)
inactive: erlotinib -0.02 | [1] 0.035 | [2] 0.02 | [3] -0.039 | [4] -0.017 | [5] 0.071 | [6] -0.001 | [7] -0.015 | [8] 0.038 | [9] -0.037 | IRAK-1-4 Inhibitor I 0.021 | ibrutinib 0.031 | [10] 0.03 | ralimetinib 0.034 | [11] -0.1 | [12] -0.12 | [13] 0.075 | pinometostat -0.044 | [14] 0.015 | [15] -0.14

PRDX6 (UniProt P30041)
inactive: erlotinib 0.048 | [1] 0.01 | [2] 0.012 | [3] -0.007 | [4] 0.043 | [5] -0.001 | [6] -0.013 | [7] 0.023 | [8] 0.032 | [9] 0.038 | IRAK-1-4 Inhibitor I 0.041 | ibrutinib 0 | [10] -0.029 | ralimetinib -0.042 | [11] 0.003 | [12] -0.033 | [13] -0.016 | pinometostat -0.041 | [14] -0.007 | [15] 0.034

PPP1R14C (UniProt Q8TAE6)
inactive: erlotinib 0.202 | [1] 0.097 | [2] -0.241 | [3] 0.18 | [4] -0.078 | [5] 0.05 | [6] 0.062 | [7] 0 | [8] -0.033 | [9] 0.162 | IRAK-1-4 Inhibitor I -0.015 | ibrutinib 0.064 | [10] 0.055 | ralimetinib -0.024 | [11] 0.05 | [12] -0.009 | [13] -0.113 | pinometostat 0 | [14] 0.156 | [15] 0.061
